The list shows a part of the results. Most entries show no effect beyond the scatter of the controls.

By UniProt entry, the sequences of proteins in these tests, tags left out. Where a name states a change or a piece, a line headed by the entry shows the natural chain unless it says otherwise.
UniProt Q4G0N4: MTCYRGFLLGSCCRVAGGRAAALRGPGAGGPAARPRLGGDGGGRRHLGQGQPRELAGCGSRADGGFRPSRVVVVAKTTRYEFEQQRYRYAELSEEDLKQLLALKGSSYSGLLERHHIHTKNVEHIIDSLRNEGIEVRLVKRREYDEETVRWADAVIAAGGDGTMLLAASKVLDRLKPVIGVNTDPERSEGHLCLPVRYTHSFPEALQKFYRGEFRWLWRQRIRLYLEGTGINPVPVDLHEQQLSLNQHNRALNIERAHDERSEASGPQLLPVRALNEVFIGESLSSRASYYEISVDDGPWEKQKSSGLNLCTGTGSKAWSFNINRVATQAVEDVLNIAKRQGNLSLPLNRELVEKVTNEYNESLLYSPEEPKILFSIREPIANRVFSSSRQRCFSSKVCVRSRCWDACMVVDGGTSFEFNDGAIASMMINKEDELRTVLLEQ
UniProt Q5VTB9: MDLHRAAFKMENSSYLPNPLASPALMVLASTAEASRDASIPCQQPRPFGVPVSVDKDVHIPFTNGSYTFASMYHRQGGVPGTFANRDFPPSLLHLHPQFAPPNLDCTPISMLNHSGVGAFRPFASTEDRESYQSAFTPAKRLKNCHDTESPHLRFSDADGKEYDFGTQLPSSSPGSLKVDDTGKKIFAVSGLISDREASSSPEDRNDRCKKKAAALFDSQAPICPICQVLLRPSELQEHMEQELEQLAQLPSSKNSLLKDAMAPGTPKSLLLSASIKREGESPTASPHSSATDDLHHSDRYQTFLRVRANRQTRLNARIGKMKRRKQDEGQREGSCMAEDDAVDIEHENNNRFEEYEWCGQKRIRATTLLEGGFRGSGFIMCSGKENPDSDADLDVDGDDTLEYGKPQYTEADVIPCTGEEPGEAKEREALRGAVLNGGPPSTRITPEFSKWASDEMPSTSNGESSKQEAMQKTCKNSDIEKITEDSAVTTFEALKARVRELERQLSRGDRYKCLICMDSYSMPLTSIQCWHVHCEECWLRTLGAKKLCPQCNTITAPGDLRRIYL
UniProt Q5T447: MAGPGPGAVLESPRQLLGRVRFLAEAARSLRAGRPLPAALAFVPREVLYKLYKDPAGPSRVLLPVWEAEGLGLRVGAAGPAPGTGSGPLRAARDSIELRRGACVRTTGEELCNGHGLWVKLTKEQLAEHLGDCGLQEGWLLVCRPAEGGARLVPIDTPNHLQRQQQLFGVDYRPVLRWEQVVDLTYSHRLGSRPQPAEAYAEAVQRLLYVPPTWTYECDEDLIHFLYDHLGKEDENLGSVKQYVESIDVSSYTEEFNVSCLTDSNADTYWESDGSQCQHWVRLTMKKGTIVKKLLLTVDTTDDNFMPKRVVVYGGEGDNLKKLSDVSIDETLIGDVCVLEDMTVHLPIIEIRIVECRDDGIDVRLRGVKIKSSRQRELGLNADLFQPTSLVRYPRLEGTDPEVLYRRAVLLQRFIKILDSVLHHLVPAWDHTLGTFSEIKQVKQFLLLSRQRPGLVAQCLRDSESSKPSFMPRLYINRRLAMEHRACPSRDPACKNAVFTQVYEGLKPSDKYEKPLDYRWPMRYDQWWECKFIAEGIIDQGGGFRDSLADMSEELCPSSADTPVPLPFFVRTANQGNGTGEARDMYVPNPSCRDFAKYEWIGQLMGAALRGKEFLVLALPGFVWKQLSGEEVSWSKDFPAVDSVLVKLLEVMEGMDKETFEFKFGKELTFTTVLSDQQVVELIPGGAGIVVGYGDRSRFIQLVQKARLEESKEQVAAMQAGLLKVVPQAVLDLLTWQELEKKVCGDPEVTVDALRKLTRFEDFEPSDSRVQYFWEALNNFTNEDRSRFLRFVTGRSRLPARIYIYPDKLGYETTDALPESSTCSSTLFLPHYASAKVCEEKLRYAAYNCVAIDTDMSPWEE
UniProt Q58EX7: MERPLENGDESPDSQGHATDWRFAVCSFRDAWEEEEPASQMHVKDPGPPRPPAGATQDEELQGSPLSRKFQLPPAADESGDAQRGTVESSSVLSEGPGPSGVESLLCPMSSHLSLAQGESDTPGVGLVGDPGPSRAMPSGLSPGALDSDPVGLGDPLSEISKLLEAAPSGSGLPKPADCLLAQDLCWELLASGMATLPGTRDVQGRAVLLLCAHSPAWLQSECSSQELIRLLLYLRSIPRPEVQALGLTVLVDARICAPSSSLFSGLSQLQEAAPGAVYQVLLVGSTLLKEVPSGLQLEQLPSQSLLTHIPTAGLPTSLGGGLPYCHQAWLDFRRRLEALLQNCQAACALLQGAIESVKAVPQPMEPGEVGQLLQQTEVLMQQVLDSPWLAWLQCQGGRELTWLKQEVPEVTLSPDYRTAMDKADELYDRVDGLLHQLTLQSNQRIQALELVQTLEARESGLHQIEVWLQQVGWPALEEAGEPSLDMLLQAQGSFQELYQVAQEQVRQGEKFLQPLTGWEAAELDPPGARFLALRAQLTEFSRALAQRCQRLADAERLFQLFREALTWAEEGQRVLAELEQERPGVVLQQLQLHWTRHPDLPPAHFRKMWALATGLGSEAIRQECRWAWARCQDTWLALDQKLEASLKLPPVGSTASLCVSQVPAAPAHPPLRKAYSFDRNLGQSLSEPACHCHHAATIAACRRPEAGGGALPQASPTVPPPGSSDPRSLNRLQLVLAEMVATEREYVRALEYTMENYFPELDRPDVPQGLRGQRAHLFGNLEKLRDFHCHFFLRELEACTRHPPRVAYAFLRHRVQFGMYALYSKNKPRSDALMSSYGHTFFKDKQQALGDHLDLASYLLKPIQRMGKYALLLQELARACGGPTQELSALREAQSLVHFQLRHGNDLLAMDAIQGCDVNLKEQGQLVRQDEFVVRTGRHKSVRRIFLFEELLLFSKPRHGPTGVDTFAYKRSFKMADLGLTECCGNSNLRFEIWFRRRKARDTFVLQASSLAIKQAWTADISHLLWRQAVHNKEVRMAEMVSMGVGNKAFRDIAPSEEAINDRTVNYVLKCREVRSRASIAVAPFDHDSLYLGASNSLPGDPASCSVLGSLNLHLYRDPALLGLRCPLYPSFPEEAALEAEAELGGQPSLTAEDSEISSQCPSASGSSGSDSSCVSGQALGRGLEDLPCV
UniProt Q5EBL8: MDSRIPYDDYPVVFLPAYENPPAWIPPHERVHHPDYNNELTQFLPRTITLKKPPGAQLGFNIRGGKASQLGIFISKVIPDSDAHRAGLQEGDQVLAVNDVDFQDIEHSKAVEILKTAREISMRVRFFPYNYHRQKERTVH
UniProt Q5SWA1: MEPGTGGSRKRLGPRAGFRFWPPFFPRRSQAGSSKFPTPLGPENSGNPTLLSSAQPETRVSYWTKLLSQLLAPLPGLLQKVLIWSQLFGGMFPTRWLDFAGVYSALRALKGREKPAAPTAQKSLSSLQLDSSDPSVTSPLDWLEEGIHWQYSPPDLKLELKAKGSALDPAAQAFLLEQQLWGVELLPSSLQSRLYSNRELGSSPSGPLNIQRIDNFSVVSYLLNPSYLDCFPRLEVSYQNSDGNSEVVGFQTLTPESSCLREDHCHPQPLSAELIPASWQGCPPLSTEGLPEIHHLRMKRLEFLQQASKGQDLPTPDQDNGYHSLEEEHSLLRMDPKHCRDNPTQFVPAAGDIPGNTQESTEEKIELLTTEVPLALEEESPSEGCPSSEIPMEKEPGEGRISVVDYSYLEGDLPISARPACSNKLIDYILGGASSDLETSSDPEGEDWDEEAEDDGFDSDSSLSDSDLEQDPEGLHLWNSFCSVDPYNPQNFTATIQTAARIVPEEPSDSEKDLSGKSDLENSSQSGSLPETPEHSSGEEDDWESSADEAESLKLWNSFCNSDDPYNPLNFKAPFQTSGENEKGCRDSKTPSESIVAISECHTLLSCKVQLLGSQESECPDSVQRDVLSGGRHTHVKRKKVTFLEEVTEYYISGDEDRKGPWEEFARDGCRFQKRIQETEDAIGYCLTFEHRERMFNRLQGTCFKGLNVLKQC
UniProt Q58FF6, whole entry: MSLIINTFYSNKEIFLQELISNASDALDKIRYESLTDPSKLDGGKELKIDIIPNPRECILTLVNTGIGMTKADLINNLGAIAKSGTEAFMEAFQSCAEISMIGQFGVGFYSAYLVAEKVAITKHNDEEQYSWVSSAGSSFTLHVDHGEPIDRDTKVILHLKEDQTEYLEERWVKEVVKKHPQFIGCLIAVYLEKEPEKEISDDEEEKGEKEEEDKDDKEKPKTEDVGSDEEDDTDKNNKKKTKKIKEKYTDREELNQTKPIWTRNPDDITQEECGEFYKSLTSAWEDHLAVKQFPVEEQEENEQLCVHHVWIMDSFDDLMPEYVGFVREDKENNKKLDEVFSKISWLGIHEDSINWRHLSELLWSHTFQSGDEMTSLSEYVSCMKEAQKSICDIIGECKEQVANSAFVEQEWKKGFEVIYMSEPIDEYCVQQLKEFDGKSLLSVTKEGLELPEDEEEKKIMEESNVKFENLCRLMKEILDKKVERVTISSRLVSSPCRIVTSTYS
UniProt Q5VV17: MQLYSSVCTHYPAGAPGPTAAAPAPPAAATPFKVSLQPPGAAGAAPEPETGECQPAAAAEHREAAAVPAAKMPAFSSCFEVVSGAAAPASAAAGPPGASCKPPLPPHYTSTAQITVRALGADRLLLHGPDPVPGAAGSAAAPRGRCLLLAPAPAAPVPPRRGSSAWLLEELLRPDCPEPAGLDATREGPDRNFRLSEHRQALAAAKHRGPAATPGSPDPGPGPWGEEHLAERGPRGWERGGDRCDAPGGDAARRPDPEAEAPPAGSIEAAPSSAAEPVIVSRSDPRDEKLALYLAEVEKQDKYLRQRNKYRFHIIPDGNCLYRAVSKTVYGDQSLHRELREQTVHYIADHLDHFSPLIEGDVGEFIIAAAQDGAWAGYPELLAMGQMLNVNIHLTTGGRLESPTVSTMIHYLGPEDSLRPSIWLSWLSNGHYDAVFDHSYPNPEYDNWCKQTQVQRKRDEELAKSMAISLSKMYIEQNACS
UniProt Q5SXM8: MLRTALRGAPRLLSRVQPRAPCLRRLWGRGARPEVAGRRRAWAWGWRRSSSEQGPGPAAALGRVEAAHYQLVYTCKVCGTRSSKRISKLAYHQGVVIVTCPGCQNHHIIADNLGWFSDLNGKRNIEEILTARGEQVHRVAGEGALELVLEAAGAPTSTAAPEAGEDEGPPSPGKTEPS
UniProt Q53ET0: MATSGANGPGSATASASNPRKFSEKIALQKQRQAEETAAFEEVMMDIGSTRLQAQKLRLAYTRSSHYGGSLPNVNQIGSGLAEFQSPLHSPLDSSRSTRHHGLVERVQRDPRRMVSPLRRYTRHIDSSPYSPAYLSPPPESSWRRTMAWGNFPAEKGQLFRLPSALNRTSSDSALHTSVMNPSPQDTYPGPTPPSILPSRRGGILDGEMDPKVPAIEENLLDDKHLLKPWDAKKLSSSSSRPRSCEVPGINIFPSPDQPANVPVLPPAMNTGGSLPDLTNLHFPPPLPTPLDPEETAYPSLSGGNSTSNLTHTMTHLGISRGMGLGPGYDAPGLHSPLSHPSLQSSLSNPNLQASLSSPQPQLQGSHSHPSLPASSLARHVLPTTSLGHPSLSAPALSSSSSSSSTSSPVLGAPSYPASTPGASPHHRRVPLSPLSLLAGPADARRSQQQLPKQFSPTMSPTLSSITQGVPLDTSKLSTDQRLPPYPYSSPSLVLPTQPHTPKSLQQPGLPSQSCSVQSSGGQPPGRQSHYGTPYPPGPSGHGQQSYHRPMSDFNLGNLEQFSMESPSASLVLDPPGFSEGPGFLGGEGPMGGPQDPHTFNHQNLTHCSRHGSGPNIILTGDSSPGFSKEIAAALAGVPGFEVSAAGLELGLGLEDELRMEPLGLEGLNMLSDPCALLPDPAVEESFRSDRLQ
UniProt Q53HC0: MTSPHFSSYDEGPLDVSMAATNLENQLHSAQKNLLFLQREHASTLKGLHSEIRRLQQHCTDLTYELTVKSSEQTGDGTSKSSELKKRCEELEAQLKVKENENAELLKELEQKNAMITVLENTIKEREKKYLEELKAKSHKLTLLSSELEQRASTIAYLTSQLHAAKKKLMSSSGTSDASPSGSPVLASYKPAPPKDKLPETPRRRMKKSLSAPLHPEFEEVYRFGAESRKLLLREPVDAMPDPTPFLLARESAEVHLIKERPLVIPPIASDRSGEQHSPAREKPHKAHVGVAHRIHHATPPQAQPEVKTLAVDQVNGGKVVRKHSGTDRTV
UniProt Q53H96: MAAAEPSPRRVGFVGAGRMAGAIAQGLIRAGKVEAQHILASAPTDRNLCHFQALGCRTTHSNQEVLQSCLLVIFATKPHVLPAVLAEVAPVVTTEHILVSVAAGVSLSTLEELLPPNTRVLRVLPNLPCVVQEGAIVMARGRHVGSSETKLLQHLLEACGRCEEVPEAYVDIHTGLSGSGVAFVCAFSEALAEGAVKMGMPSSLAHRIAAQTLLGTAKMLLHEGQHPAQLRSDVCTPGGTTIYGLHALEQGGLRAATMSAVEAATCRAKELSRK

Compound in this experiment: CN[C@@H]1C[C@H]2O[C@@](C)([C@@H]1OC)n1c3ccccc3c3c4c(c5c6ccccc6n2c5c31)C(=O)NC4 [staurosporine]
The experiment in a line: log2 fold change of tryptic peptide abundance, ligand vs vehicle (limited proteolysis) (log2 ratio); higher = more trypsin-susceptible (destabilized). The settings on record: ligand concentration: 20 uM; sample: K562 cleared lysate; digestion: 4 min, 22 C (HT-PELSA RT4min, Orbitrap Astral).
In the case of “UniProt Q4G0N4 (peptide sequence: SSGLNLCTGTGSK, peptide start residue: 305)”, the log2 fold change is -0.219. In the case of “RNF20 (peptide sequence: AVEEQIEYLQKK, peptide start residue: 706) (UniProt Q5VTR2)” it was -1.12. Regarding “RNF220 (peptide sequence: FEEYEWCGQKR, peptide start residue: 353) (UniProt Q5VTB9)”, the log2 fold change was -0.192. In the case of “UniProt Q5T7V8 (peptide sequence: AEAEYIAAK, peptide start residue: 227)” it was -0.175; in that of “HECTD3 (peptide sequence: LEGTDPEVLYRR, peptide start residue: 396) (UniProt Q5T447)”, -0.31. For “PLEKHG4 (peptide sequence: FAVCSFR, peptide start residue: 23) (UniProt Q58EX7)”, the log2 fold change was -0.117. In the case of “ANO6 (peptide sequence: MIEAVDNNLRPK, peptide start residue: 897) (UniProt Q4KMQ2)”, the log2 fold change is -0.244. On to “PDZD11 (peptide sequence: ASQLGIFISK, peptide start residue: 67) (UniProt Q5EBL8)”, for which the log2 fold change amounted to 0.171. As to “FKBP15 (peptide sequence: DDVTSSTGPHK, peptide start residue: 1126) (UniProt Q5T1M5)”, the log2 fold change was 0.457.

Take “PPP1R15B (peptide sequence: LLSQLLAPLPGLLQK, peptide start residue: 66) (UniProt Q5SWA1)”: the log2 fold change is -0.704. As for “ARHGAP21 (peptide sequence: FKSDSGSLGDAKNEK, peptide start residue: 1711) (UniProt Q5T5U3)”, the log2 fold change was -0.549.

For the target “PAN3 (peptide sequence: NPIGCLADRCK, peptide start residue: 255) (UniProt Q58A45)”, the log2 fold change is -0.357.

As for “MRPL51 (peptide sequence: AMFGVYDNIGILGNFEKHPK, peptide start residue: 52) (UniProt Q4U2R6)”, the log2 fold change is -0.636. In the case of “HSP90AB4P (peptide sequence: SLIINTFYSNK, peptide start residue: 2) (UniProt Q58FF6)” it was -0.205; in that of “UniProt Q5VV17 (peptide sequence: LLLHGPDPVPGAAGSAAAPR, peptide start residue: 124)”, 0.213. The value for “DNLZ (peptide sequence: NIEEILTAR, peptide start residue: 124) (UniProt Q5SXM8)” was 0.0148; that for “USP39 (peptide sequence: AHVSPHEMLQAVVLCSK, peptide start residue: 292) (UniProt Q53GS9)” was 0.28; that for “UniProt Q53F19 (peptide sequence: NVALDRDMMK, peptide start residue: 108)” was 0.339.

As to “CRTC2 (peptide sequence: VPLSPLSLLAGPADARR, peptide start residue: 430) (UniProt Q53ET0)”, the log2 fold change was -0.457.

As for “NOL9 (peptide sequence: LLSPSHVVQFR, peptide start residue: 425) (UniProt Q5SY16)”, the log2 fold change worked out at 0.937. On to “PDSS1 (peptide sequence: FSLPGDVDR, peptide start residue: 354) (UniProt Q5T2R2)”, for which the log2 fold change is -0.245. Regarding “CEP350 (peptide sequence: SVVNQLKK, peptide start residue: 2066) (UniProt Q5VT06)”, the log2 fold change came out at 0.557. For “CCDC92 (peptide sequence: ERPLVIPPIASDR, peptide start residue: 260) (UniProt Q53HC0)”, the log2 fold change was -0.303.

With “UniProt Q53GI3 (peptide sequence: EHCPESGEEAVAVVR, peptide start residue: 126)”, the log2 fold change worked out at 0.417. As for “UniProt Q5T124 (peptide sequence: TVSEHGER, peptide start residue: 168)”, the log2 fold change is -1.07. In the case of “VPS53 (peptide sequence: SEQSSMLELLR, peptide start residue: 781) (UniProt Q5VIR6)” it was 0.316; in that of “UniProt Q53H96 (peptide sequence: AATMSAVEAATCR, peptide start residue: 255)”, 0.112.

These data come from the supplement of paper PMC12819154, “High-throughput peptide-centric local stability assay extends protein–ligand identification to membrane proteins, tissues and bacteria” (Nature Structural & Molecular Biology, 2025).
